These are yes or no findings as the source states them, for the method shown.

By UniProt entry, the sequences of proteins in these tests, tags left out. Residues count along the entry.
UniProt Q04721, residues 219-418: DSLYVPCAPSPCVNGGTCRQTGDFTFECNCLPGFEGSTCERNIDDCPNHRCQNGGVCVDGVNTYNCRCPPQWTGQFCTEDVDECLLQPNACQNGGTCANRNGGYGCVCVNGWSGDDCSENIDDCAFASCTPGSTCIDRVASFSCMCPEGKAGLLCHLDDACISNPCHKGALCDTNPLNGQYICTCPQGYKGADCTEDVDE

The target of this test is Notch2Long (Notch2 EGF6-EGF12) (human) (UniProt Q04721). The test is described as follows: SPR; both purified. On the technique in general: Surface plasmon resonance follows binding to a sensor surface in real time, without labels.

For the molecule GCGWTLWHCKQDSDCLAGCVCAPRWVCG (designed binder) [N2L.EET03.50], the binding result was “no binding”.
